These are yes or no findings as the source states them, for the method shown. For some of these results: Binding seen in cells or lysates may run through a third protein. Some entries that bind do so weakly or less than the wild type. For some of these results: Where a sequence is shown, tags or fusion partners need not be part of it. Values belong to the binder of their own block, whether it stands above or below them.
What was measured:
MyoD = MyoD (UniProt P15172); assay: ELISA; same ELISA-based platform; MyoD immobilised, Id1 in solution; with M1i-124 or M1i-124d1
BCL10 E53R mutant [1] = molecular target: T1, BCL10 E53R mutant (UniProt O95999); assay: co-IP; BCL10-/- cells reconstituted with the E53R mutant of BCL10; MALT1(Ig1-2) (Supplemental Figure 1D)
T1 sequence: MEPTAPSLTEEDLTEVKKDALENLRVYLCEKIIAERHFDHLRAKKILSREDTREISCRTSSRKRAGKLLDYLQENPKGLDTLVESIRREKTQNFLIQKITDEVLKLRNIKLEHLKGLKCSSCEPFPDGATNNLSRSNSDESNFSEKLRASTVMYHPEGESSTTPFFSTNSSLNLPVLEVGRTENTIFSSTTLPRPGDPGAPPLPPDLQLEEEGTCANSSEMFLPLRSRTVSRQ

Protein sequences, listed by entry. Tags and fused reporters are not part of them.
UniProt P15172: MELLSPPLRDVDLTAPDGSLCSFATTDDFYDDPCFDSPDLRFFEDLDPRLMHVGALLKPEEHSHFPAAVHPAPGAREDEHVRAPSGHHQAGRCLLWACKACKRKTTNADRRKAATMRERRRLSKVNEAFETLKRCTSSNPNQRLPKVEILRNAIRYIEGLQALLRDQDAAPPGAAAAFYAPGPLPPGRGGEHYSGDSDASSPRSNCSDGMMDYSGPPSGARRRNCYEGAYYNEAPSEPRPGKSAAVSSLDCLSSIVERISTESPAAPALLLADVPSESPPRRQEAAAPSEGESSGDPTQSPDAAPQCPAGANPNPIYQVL
UniProt Q7Z434: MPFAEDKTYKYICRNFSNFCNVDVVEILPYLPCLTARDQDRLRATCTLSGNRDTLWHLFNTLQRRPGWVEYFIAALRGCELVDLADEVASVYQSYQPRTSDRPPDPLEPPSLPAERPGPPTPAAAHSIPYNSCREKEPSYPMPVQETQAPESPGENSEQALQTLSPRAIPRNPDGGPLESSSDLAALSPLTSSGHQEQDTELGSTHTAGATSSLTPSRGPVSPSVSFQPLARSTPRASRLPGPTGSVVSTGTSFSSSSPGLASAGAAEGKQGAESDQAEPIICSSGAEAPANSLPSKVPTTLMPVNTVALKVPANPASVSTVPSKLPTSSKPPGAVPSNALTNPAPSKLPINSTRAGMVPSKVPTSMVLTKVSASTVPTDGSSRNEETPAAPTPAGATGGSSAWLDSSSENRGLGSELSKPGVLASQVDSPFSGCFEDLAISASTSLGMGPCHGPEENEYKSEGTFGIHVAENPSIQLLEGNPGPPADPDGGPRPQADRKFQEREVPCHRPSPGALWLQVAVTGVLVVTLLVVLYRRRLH
UniProt O43353: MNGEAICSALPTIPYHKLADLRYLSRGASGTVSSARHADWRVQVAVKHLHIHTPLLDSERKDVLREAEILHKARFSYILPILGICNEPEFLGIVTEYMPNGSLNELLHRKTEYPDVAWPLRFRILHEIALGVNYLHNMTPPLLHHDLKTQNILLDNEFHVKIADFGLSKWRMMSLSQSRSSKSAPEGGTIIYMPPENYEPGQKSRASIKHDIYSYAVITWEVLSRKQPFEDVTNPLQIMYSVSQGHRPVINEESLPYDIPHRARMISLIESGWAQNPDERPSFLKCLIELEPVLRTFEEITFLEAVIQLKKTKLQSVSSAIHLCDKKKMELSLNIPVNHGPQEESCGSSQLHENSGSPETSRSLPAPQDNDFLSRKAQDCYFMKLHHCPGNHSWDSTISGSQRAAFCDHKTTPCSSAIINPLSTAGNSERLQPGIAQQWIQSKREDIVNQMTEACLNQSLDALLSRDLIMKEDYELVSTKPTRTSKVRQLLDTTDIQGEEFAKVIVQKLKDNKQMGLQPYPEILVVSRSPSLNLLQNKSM

Myc-tagged MAVS = Myc-tagged MAVS (UniProt Q7Z434); assay: co-IP; HA-tagged MALT1 proteins or fragments with Myc-tagged BCL10 (or Myc-tagged RICK, MAVS), expressed in transiently transfected 293T cells
Myc-tagged RICK = Myc-tagged RICK (UniProt O43353); assay: as above
Myc-tagged BCL10 [2] = molecular target: T2, Myc-tagged BCL10 (UniProt O95999); assay: as above
T2 sequence: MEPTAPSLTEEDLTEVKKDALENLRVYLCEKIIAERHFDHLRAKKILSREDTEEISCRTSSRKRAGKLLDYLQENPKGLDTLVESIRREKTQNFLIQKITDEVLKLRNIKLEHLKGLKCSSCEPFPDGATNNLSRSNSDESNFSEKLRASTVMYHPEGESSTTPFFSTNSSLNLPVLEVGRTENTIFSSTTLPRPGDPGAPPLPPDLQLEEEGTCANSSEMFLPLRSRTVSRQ

Myc-tagged BCL10 [3] = molecular target: T2, Myc-tagged BCL10; assay: co-IP; self-association of BCL10 (WT or E53R) in the authors' co-IP system (Supplemental Figure 1C)
BCL10 E53R mutant [4] = molecular target: T1, BCL10 E53R mutant; assay: as above

binding (MyoD): binds
B1: inhibitor of DNA binding 1 (protein, UniProt P41134 1-155)
chain: MKVASGSTATAAAGPSCALKAGKTASGAGEVVRCLSEQSVAISRCAGGAGARLPALLDEQQVNVLLYDMNGCYSRLKELVPTLPQNRKVSKVEILQHVIDYIRDLQLELNSESEVGTPGGRGLPVRAPLSTLNGEISALTAEAACVPADDRILCR

binding (BCL10 E53R mutant [1]): binds
binding (Myc-tagged MAVS): no binding
binding (Myc-tagged RICK): no binding
binding (Myc-tagged BCL10 [2]): binds
B2: HA-tagged MALT1(Ig1-2) (domain or fragment, UniProt Q9UDY8 128-308)
chain: KITVNPESKAVLAGQFVKLCCRATGHPFVQYQWFKMNKEIPNGNTSELIFNAVHVKDAGFYVCRVNNNFTFEFSQWSQLDVCDIPESFQRSVDGVSESKLQICVEPTSQKLMPGSTLVLQCVAVGSPIPHYQWFKNELPLTHETKKLYMVPYVDLEHQGTYWCHVYNDRDSQDSKKVEIII

binding (Myc-tagged BCL10 [3]): binds
B3: Myc-tagged BCL10 (protein, UniProt O95999 1-233)
chain: MEPTAPSLTEEDLTEVKKDALENLRVYLCEKIIAERHFDHLRAKKILSREDTEEISCRTSSRKRAGKLLDYLQENPKGLDTLVESIRREKTQNFLIQKITDEVLKLRNIKLEHLKGLKCSSCEPFPDGATNNLSRSNSDESNFSEKLRASTVMYHPEGESSTTPFFSTNSSLNLPVLEVGRTENTIFSSTTLPRPGDPGAPPLPPDLQLEEEGTCANSSEMFLPLRSRTVSRQ

binding (BCL10 E53R mutant [4]): no binding
B4: BCL10 E53R mutant (protein, UniProt O95999 1-233)
chain: MEPTAPSLTEEDLTEVKKDALENLRVYLCEKIIAERHFDHLRAKKILSREDTREISCRTSSRKRAGKLLDYLQENPKGLDTLVESIRREKTQNFLIQKITDEVLKLRNIKLEHLKGLKCSSCEPFPDGATNNLSRSNSDESNFSEKLRASTVMYHPEGESSTTPFFSTNSSLNLPVLEVGRTENTIFSSTTLPRPGDPGAPPLPPDLQLEEEGTCANSSEMFLPLRSRTVSRQ

— article PMC11996864, “A small-molecule inhibitor of BCL10-MALT1 interaction abrogates progression of diffuse large B cell lymphoma” (The Journal of Clinical Investigation, 2025)
